Values from PubChem BioAssay AID504804 (Drosophila RNAi Screening Center, 2011).
Screen: 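dsRNAs that improve Kc cell survival under doxorubicin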 (primary screen). Cell system: Drosophila Kc cells. Reagents: long dsRNA against Drosophila genes, 0.5 µg dsRNA per well. Duration: 96 h (48 h knock-down, then 48 h drug). Conditions: doxorubicin 5 µg/ml for 48 h, added 48 h after dsRNA. Detection: 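Luminescent ATP counts per replicate, not normalised, reflecting viable cells after 48 h dsRNA knock-down followed by 48 h of 5 µg/ml doxorubicin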. Reading the numbers: raw ATP luminescence: higher = more viable cells, protection from doxorubicin. Call rule: 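z-score of 2 or more over plate mean in both duplicates, retained only when retests and separate dsRNAs confirm the protection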.
The deposit covers about 19,000 reagents; below is a random part of those that have a named target and a result. Over the whole deposit, 47 (0.25%) are marked active. 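Signals are raw, not normalised; exact z-scores behind calls not deposited; actives needed confirmation, so some wells reaching 2 SD are inactive.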 A number with no mark means an inactive call.

CG2921 [DRSC04324] showed raw ATP luminescence, replicate 1 = 79970; raw ATP luminescence, replicate 2 = 74407.
For CG9449 [DRSC11073], the values are raw ATP luminescence, replicate 1 = 67583; raw ATP luminescence, replicate 2 = 73487.
For NFAT [DRSC18991], the entry reads raw ATP luminescence, replicate 1 = 1.05e5; raw ATP luminescence, replicate 2 = 75357.
Silencing of NFAT [DRSC19393] resulted in: raw ATP luminescence, replicate 1 = 3.33e5; raw ATP luminescence, replicate 2 = 2.91e5.
With knock-down of Acp26Aa [DRSC01855], the record shows raw ATP luminescence, replicate 1 = 28713; raw ATP luminescence, replicate 2 = 39100.
Depletion of trus [DRSC15772] came out at: raw ATP luminescence, replicate 1 = 52773; raw ATP luminescence, replicate 2 = 44763.
Against Tim23 [DRSC21240], the entry reads raw ATP luminescence, replicate 1 = 1.97e5; raw ATP luminescence, replicate 2 = 2.24e5.
Against CCAP [DRSC15674], the entry reads raw ATP luminescence, replicate 1 = 53890; raw ATP luminescence, replicate 2 = 67890.

Copied from the listing (2 entries):
CG2921 [DRSC04324] → raw ATP luminescence, replicate 1 = 79970; raw ATP luminescence, replicate 2 = 74407
CG9449 [DRSC11073] → raw ATP luminescence, replicate 1 = 67583; raw ATP luminescence, replicate 2 = 73487

Continued.
After knock-down of gammaTub37C [DRSC03535] the results were raw ATP luminescence, replicate 1 = 85183; raw ATP luminescence, replicate 2 = 55530.
With knock-down of Xrp1 [DRSC15282] the results were raw ATP luminescence, replicate 1 = 15390; raw ATP luminescence, replicate 2 = 11940.
With knock-down of Xrp1 [DRSC15283], the record shows raw ATP luminescence, replicate 1 = 27440; raw ATP luminescence, replicate 2 = 17450.
Dus3 [DRSC02059] showed raw ATP luminescence, replicate 1 = 56457; raw ATP luminescence, replicate 2 = 54817.
After knock-down of CG12301 [DRSC09875], the record shows raw ATP luminescence, replicate 1 = 23247; raw ATP luminescence, replicate 2 = 23453.
Against Sec24CD [DRSC00300] the deposit lists raw ATP luminescence, replicate 1 = 83330; raw ATP luminescence, replicate 2 = 95730.
Inx7 [DRSC18784] scored raw ATP luminescence, replicate 1 = 56620; raw ATP luminescence, replicate 2 = 40570.
For Gs2 [DRSC20250] the deposit lists raw ATP luminescence, replicate 1 = 2.93e5; raw ATP luminescence, replicate 2 = 2.76e5.
CG12115 [DRSC17811] gave raw ATP luminescence, replicate 1 = 3.68e5; raw ATP luminescence, replicate 2 = 3.67e5.
Against CG33306 [DRSC01899], the values are raw ATP luminescence, replicate 1 = 76890; raw ATP luminescence, replicate 2 = 56603.
Against CG31327 [DRSC13019] the deposit lists raw ATP luminescence, replicate 1 = 2.18e5; raw ATP luminescence, replicate 2 = 2.40e5.
